From paper PMC2568865 come the findings set out here.

These are yes or no findings as the source states them, for the method shown. Some binding calls cover weakened binding; strength is not graded here. Tags and fused reporters may be left off the sequences shown.

The target in the experiment is T1, GST-tagged PP5 (human) (UniProt P53041).
T1 sequence: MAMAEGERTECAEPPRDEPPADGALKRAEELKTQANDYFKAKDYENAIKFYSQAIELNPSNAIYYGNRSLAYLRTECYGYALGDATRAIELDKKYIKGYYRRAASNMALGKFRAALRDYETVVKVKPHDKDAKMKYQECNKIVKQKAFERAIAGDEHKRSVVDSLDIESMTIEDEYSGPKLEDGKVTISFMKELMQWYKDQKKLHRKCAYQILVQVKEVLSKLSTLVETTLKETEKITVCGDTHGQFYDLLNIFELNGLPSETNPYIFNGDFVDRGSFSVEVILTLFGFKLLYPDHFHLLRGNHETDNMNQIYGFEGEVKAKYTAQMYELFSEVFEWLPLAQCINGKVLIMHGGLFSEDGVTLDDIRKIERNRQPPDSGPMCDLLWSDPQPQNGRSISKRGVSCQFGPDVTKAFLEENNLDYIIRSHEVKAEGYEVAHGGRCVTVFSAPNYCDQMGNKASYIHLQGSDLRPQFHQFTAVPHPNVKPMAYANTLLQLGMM
Put plainly: pull-down; GST-PP5 on glutathione Sepharose with Cdc37 or CK2-phosphorylated Cdc37, without Hsp90α; 4°C, 2 hr; 50 mM HEPES pH 7.5, 150 mM NaCl, 0.1% NP40, BSA; both purified.

B1: pSer13-Cdc37 (E. coli-expressed Cdc37 phosphorylated in vitro with CK2) (protein, UniProt Q16543 1-378)
chain: MVDYSVWDHIEVSDDEDETHPNIDTASLFRWRHQARVERMEQFQKEKEELDRGCRECKRKVAECQRKLKELEVAEGGKAELERLQAEAQQLRKEERSWEQKLEEMRKKEKSMPWNVDTLSKDGFSKSMVNTKPEKTEEDSEEVREQKHKTFVEKYEKQIKHFGMLRRWDDSQKYLSDNVHLVCEETANYLVIWCIDLEVEEKCALMEQVAHQTIVMQFILELAKSLKVDPRACFRQFFTKIKTADRQYMEGFNDELEAFKERVRGRAKLRIEKAMKEYEEEERKKRLGPGGLDPVEVYESLPEELQKCFDVKDVQMLQDAISKMDPTDAKYHMQRCIDSGLWVPNSKASEAKEGEEAGPGDPLLEAVPKTGDEKDVSV
modifications: phosphoserine at 13
Take B1: the binding result is listed as “binds weakly”.
